Values quoted from earlier work in patent publication US20250376698A1, “COMPOSITIONS AND METHODS FOR PROMOTING LIVER REGENERATION BY GENE EDITING IN METABOLIC LIVER DISEASE” (priority 2022, published 2025).
For at least one compound, name, drawing or mass did not settle the structure.

Test system: GSD Ia mice
Conditions: previously shown (Kang et al. 2019); cited from earlier work

Q: With `CC(C)(Oc1ccc(CCNC(=O)c2ccc(Cl)cc2)cc1)C(=O)O` [Bezafibrate, bezafibrate] as the compound, how does the “liver triglycerides and glycogen” value read?
A: lower liver triglycerides and glycogen

Q: And the “transduction of AAV and expression of transgenes” value?
A: increasing the transduction of AAV and expression of transgenes
